# Laboratory results: PubChem BioAssay AID743121 (NCATS, 2013)
# Purpose: 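Knock-downs that sensitise breast cancer cells to camptothecin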 (primary screen)
# Cell system: MDA-MB-231 cells, a human breast cancer line
# Reagent: single siRNA against human genes, 20 nM siRNA (0.8 pmol per well)
# Timing: 120 h (drug added 48 h after transfection, read 72 h later)
# Challenge: camptothecin 20 nM (about EC30) for 72 h; vehicle 0.1% DMSO in parallel plates
# Detection: 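CellTiter-Glo ATP signal, scaled to control siRNA as percent viability; sensitisation given as log2 of untreated divided by camptothecin-treated viability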
# Scale: log2 vehicle/camptothecin viability: higher = stronger sensitisation to camptothecin
# Rule for the call: 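Active genes have an RSA gene-level p-value below 0.001, computed from the ratios of their separate siRNAs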
# In all, the deposit lists about 26,000 reagents; shown is a part drawn at random. In the full data, 167 (0.63%) got an active call. 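Calls are per gene from RSA p-values that are not deposited; an individual active-marked siRNA can sensitise only weakly.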 Entries without a mark were called inactive. Reagents against one gene are numbered here. Not all columns of the deposit are shown.
gene,reagent,log2 vehicle/camptothecin viability
"MYCL (MYCL proto-oncogene, bHLH transcription factor)",1,0.262
"MYCL (MYCL proto-oncogene, bHLH transcription factor)",2,-0.28
"MYCL (MYCL proto-oncogene, bHLH transcription factor)",3,-0.247
"MYCL (MYCL proto-oncogene, bHLH transcription factor)",4,-1.21
"MYCL (MYCL proto-oncogene, bHLH transcription factor)",5,-0.267
"MYCL (MYCL proto-oncogene, bHLH transcription factor)",6,0.053
"MYCL (MYCL proto-oncogene, bHLH transcription factor)",7,-0.241
"MYCL (MYCL proto-oncogene, bHLH transcription factor)",8,-0.115
THOP1 (thimet oligopeptidase 1),1,-0.34
THOP1 (thimet oligopeptidase 1),2,-0.0968
THOP1 (thimet oligopeptidase 1),3,-0.24
THOP1 (thimet oligopeptidase 1),4,0.808
CFTR (CF transmembrane conductance regulator),1,-0.49
CFTR (CF transmembrane conductance regulator),2,-0.0911
CFTR (CF transmembrane conductance regulator),3,-0.147
CFTR (CF transmembrane conductance regulator),4,-0.23
PANK4 (pantothenate kinase 4 (inactive)),1,-0.146
PANK4 (pantothenate kinase 4 (inactive)),2,-0.184
PANK4 (pantothenate kinase 4 (inactive)),3,0.884
PANK4 (pantothenate kinase 4 (inactive)),4,-0.0895
"MUC17 (mucin 17, cell surface associated)",1,-0.586
"MUC17 (mucin 17, cell surface associated)",2,-0.161
"MUC17 (mucin 17, cell surface associated)",3,0.347
"MUC17 (mucin 17, cell surface associated)",4,-0.438
CYP4F3 (cytochrome P450 family 4 subfamily F member 3),1,-0.55
CYP4F3 (cytochrome P450 family 4 subfamily F member 3),2,0.126
CYP4F3 (cytochrome P450 family 4 subfamily F member 3),3,-0.306
CYP4F3 (cytochrome P450 family 4 subfamily F member 3),4,-0.0645
CYP4F3 (cytochrome P450 family 4 subfamily F member 3),5,0.237
CYP4F3 (cytochrome P450 family 4 subfamily F member 3),6,-0.0667
DHFR (dihydrofolate reductase),1,-0.221
DHFR (dihydrofolate reductase),2,-0.319
DHFR (dihydrofolate reductase),3,-0.399
DHFR (dihydrofolate reductase),4,-0.344

Reformatted: results already given.
CFTR (CF transmembrane conductance regulator) #2
- log2 vehicle/camptothecin viability: -0.0911

CFTR (CF transmembrane conductance regulator) #3
- log2 vehicle/camptothecin viability: -0.147

CFTR (CF transmembrane conductance regulator) #4
- log2 vehicle/camptothecin viability: -0.23

PANK4 (pantothenate kinase 4 (inactive)) #1
- log2 vehicle/camptothecin viability: -0.146

PANK4 (pantothenate kinase 4 (inactive)) #2
- log2 vehicle/camptothecin viability: -0.184

PANK4 (pantothenate kinase 4 (inactive)) #3
- log2 vehicle/camptothecin viability: 0.884

The listing continues.
gene,reagent,log2 vehicle/camptothecin viability
TLR7 (toll like receptor 7),1,-0.491
TLR7 (toll like receptor 7),2,-0.0196
TLR7 (toll like receptor 7),3,-0.158
TLR7 (toll like receptor 7),4,-0.362
MPP1 (MAGUK p55 scaffold protein 1),1,-0.0051
MPP1 (MAGUK p55 scaffold protein 1),2,-0.424
MPP1 (MAGUK p55 scaffold protein 1),3,-0.37
MPP1 (MAGUK p55 scaffold protein 1),4,-0.317
SMCHD1,1,-0.0418
SMCHD1,2,-0.129
SMCHD1,3,-0.241
SMCHD1,4,-0.0535
UXT (ubiquitously expressed prefoldin like chaperone),1,-0.251
UXT (ubiquitously expressed prefoldin like chaperone),2,-0.092
UXT (ubiquitously expressed prefoldin like chaperone),3,-0.0357
GAD1 (glutamate decarboxylase 1),1,-0.624
GAD1 (glutamate decarboxylase 1),2,-0.00968
GAD1 (glutamate decarboxylase 1),3,-0.0898
GAD1 (glutamate decarboxylase 1),4,-0.442
FCMR (Fc mu receptor),1,-0.332
FCMR (Fc mu receptor),2,-0.115
FCMR (Fc mu receptor),3,-0.281
FCMR (Fc mu receptor),4,-0.818
CPO (carboxypeptidase O),1,0
CPO (carboxypeptidase O),2,-0.362
CPO (carboxypeptidase O),3,-0.152
CPO (carboxypeptidase O),4,0.0698
RGS7 (regulator of G protein signaling 7),1,-0.0492
RGS7 (regulator of G protein signaling 7),2,-0.0646
RGS7 (regulator of G protein signaling 7),3,-0.517
RGS7 (regulator of G protein signaling 7),4,-0.417
MYORG (myogenesis regulating glycosidase),1,0.023
MYORG (myogenesis regulating glycosidase),2,-0.0128
MYORG (myogenesis regulating glycosidase),3,0.471
MYORG (myogenesis regulating glycosidase),4,-0.0977
